The record followed here is the supplement of paper PMC12819154, “High-throughput peptide-centric local stability assay extends protein–ligand identification to membrane proteins, tissues and bacteria” (Nature Structural & Molecular Biology, 2025).

Chains of the proteins cited; added tags and fusions are not shown. Lines headed by an entry give the natural chain unless they say otherwise; changes in a name come on top.
UniProt Q9Y2F5: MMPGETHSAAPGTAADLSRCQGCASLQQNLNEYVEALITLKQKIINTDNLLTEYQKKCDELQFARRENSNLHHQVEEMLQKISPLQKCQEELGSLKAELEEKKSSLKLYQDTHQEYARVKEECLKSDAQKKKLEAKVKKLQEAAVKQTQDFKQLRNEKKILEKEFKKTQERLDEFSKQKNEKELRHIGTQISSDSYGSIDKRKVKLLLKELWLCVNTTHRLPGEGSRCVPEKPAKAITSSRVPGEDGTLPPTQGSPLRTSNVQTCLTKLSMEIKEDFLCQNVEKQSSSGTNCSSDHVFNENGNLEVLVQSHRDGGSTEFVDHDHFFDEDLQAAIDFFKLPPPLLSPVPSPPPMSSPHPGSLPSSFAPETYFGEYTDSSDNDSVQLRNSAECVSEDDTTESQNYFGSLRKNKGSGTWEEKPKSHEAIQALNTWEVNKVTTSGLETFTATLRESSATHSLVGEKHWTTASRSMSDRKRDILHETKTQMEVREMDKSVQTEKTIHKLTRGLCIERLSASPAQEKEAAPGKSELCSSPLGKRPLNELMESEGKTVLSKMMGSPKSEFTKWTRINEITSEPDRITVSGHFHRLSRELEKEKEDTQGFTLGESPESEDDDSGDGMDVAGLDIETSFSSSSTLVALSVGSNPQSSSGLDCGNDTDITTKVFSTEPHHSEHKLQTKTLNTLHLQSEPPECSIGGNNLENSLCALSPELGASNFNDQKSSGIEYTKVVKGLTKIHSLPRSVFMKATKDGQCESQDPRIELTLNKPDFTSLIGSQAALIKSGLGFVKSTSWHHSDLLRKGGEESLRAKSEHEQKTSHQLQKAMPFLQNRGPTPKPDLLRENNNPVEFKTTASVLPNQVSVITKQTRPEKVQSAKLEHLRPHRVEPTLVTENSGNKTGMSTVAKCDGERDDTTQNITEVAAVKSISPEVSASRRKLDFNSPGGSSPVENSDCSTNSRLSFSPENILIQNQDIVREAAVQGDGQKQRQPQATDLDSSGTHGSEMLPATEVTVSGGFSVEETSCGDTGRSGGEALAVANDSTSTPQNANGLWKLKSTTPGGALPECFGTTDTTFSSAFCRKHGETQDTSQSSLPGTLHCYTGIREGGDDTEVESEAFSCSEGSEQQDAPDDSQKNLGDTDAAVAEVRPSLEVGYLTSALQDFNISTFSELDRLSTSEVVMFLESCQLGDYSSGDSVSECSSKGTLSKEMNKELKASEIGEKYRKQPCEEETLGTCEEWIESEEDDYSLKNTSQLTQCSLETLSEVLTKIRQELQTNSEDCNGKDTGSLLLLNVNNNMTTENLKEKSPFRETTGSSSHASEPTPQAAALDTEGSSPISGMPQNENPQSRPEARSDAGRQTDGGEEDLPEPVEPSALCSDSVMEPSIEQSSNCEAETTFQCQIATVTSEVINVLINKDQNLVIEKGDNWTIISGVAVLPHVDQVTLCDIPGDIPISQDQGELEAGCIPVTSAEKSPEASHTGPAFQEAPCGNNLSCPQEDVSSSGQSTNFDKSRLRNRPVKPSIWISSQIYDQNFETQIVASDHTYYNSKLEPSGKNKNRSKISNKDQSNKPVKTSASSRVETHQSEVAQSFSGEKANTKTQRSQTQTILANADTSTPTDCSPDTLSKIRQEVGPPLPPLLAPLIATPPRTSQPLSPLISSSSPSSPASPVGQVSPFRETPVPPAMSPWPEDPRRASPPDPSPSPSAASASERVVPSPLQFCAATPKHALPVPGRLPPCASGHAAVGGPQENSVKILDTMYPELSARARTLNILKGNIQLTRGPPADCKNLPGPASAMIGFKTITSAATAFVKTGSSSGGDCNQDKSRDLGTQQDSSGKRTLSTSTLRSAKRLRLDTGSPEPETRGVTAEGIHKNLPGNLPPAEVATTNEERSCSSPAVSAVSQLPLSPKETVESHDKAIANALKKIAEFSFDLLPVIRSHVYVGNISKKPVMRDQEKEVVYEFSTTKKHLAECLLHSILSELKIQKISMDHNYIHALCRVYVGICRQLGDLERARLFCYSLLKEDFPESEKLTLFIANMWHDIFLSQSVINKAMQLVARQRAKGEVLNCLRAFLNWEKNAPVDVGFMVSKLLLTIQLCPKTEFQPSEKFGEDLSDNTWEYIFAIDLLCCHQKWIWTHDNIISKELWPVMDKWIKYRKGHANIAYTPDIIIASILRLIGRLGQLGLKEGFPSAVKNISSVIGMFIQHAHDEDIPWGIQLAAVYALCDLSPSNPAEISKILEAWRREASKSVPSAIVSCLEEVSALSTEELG
UniProt Q9UMY4: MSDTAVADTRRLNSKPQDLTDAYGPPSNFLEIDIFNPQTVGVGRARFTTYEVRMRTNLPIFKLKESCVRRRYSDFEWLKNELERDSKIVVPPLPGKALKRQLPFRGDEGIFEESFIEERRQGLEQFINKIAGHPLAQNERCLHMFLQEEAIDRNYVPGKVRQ
UniProt Q9Y312: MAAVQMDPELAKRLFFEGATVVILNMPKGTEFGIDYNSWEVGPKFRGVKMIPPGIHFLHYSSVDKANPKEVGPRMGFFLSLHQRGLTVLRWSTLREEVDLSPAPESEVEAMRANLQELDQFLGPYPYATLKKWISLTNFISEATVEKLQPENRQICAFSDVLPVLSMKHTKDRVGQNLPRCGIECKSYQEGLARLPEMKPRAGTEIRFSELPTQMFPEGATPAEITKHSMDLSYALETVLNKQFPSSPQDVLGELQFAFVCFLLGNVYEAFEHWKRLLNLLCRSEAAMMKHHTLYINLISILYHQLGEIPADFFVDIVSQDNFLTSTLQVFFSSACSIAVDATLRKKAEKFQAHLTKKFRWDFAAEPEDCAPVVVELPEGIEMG
UniProt Q9Y2L1: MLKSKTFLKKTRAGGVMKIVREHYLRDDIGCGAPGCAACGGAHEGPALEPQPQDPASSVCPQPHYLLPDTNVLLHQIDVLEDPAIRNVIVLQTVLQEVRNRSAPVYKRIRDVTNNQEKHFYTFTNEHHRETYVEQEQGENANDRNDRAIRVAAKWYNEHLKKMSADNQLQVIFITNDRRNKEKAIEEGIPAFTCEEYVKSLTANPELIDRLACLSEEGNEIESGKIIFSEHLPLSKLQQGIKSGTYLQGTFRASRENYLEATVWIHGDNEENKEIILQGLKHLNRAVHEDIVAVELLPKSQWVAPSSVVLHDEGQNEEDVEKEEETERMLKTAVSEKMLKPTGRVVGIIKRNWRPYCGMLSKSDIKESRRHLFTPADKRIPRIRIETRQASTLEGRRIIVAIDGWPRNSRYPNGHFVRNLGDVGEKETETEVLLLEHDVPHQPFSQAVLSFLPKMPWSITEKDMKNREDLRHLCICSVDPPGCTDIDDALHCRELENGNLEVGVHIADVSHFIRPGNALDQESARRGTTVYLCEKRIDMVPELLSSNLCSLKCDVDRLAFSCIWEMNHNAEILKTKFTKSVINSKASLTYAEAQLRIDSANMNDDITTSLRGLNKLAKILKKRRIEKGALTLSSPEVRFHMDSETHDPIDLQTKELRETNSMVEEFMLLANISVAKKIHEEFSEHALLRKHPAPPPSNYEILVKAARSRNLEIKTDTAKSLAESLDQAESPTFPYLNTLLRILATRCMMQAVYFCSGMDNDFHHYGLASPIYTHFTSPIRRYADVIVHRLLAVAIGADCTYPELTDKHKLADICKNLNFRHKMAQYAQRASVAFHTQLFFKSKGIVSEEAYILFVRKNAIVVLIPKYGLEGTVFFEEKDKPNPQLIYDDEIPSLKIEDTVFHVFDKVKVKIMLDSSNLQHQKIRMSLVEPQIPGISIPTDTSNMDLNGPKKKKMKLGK
UniProt Q9Y230, whole entry: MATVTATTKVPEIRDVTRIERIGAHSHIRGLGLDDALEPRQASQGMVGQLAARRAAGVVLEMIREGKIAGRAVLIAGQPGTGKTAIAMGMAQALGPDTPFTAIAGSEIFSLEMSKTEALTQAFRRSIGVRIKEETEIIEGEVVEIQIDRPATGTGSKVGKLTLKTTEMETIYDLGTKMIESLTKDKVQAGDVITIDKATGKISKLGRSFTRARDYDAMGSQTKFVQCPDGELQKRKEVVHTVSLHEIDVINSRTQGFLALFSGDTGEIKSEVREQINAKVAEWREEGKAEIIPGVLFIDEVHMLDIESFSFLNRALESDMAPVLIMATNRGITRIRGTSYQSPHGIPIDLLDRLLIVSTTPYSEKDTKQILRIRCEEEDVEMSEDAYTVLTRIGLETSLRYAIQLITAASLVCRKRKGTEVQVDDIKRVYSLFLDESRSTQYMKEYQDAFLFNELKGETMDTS
UniProt Q9Y262, whole entry: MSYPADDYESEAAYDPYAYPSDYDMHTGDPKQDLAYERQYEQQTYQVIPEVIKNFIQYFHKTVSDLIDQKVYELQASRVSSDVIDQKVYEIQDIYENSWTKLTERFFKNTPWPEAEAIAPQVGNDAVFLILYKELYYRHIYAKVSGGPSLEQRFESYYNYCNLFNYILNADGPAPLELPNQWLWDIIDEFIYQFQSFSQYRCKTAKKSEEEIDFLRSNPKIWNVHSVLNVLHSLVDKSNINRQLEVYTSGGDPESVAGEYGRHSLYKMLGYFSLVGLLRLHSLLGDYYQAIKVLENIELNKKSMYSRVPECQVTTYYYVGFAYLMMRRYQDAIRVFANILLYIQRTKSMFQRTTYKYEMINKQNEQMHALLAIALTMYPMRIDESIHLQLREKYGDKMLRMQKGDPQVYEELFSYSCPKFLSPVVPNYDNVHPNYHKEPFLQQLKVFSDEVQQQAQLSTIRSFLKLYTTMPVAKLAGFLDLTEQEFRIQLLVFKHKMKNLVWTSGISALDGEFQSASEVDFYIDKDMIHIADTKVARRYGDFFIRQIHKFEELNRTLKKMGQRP
UniProt Q9UNP9: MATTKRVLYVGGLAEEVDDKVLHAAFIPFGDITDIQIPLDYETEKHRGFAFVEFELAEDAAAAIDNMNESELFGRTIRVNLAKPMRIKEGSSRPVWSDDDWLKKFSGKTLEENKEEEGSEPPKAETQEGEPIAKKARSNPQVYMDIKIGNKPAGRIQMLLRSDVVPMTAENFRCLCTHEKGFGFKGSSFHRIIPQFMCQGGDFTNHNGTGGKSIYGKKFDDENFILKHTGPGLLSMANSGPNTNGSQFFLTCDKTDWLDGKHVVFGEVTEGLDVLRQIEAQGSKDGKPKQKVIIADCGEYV
UniProt Q9Y2K1: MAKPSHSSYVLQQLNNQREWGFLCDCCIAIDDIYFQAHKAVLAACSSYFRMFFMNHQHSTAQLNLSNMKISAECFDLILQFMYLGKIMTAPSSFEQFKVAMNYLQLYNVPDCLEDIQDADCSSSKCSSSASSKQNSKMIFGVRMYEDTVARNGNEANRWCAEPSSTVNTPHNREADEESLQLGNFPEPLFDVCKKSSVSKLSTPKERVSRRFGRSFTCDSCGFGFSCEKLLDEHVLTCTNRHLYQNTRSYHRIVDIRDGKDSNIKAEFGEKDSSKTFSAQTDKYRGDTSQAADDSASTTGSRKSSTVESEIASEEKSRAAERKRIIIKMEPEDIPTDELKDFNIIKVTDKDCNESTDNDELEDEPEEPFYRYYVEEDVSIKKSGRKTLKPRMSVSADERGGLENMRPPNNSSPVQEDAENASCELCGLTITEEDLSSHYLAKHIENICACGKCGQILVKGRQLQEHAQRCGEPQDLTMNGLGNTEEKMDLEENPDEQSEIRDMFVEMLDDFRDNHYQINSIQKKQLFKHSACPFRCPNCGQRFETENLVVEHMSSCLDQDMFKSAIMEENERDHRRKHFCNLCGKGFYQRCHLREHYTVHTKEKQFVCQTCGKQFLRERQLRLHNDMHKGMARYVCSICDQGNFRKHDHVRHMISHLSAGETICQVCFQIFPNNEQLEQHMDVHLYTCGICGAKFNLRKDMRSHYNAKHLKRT
UniProt Q9UMX1: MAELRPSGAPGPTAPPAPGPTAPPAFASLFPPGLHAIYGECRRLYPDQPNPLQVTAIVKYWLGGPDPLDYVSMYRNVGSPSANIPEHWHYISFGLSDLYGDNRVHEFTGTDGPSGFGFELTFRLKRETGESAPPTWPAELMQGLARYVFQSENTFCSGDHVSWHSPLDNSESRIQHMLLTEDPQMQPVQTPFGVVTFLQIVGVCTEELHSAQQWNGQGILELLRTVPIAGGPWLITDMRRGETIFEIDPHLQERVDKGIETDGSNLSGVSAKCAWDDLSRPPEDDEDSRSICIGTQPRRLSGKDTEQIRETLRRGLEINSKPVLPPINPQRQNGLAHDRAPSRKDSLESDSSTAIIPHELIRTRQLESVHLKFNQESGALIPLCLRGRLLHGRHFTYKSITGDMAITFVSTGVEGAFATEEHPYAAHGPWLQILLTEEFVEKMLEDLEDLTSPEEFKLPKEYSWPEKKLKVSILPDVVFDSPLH
UniProt Q9Y3B8: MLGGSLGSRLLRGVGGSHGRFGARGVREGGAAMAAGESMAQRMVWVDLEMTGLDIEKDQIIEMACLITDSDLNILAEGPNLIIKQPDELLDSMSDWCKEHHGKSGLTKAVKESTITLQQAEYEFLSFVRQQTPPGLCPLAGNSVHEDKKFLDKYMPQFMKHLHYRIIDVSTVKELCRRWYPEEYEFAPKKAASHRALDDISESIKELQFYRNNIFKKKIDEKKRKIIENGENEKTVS

This is one part of the list. Most entries show no effect beyond the scatter of the controls.

Compound in this assay: CN[C@@H]1C[C@H]2O[C@@](C)([C@@H]1OC)n1c3ccccc3c3c4c(c5c6ccccc6n2c5c31)C(=O)NC4 [staurosporine]
Kind of assay: log2 fold change of tryptic peptide abundance, ligand vs vehicle (limited proteolysis) (log2 ratio); higher = more trypsin-susceptible (destabilized). Particulars: ligand concentration: 20 uM; sample: K562 cleared lysate; digestion: 4 min, 22 C (HT-PELSA RT4min, Orbitrap Astral).
Take “ZNF281 (peptide sequence: DVLLSSSSR, peptide start residue: 194) (UniProt Q9Y2X9)”: the log2 fold change was 0.257. Then “ICE1 (peptide sequence: ESSATHSLVGEK, peptide start residue: 451) (UniProt Q9Y2F5)”, with 0.664; and “UniProt Q9Y333 (peptide sequence: MLFYSFFK, peptide start residue: 1)”, with 0.197; and “TTF2 (peptide sequence: QVLSGSGESVTK, peptide start residue: 1139) (UniProt Q9UNY4)”, with -0.193. The figure for “MEMO1 (peptide sequence: NWQDSSVSYAAGALTVH, peptide start residue: 281) (UniProt Q9Y316)” is 0.215; for “UniProt Q9Y2L5 (peptide sequence: NSDNNLLSLDGLDNEVK, peptide start residue: 272)” it is -0.728; for “UniProt Q9UNT1 (peptide sequence: AHACIMVFDVQR, peptide start residue: 94)” it is 0.303. In the case of “COG6 (peptide sequence: GFIDALTR, peptide start residue: 280) (UniProt Q9Y2V7)”, the log2 fold change came to 0.171. “POMP (peptide sequence: NIQGLFAPLK, peptide start residue: 69) (UniProt Q9Y244)”: the log2 fold change amounted to 0.234.

With “SNX12 (peptide sequence: NYVPGKVRQ, peptide start residue: 154) (UniProt Q9UMY4)”, the log2 fold change was 0.59. Take “UniProt Q9UM82 (peptide sequence: STQLSHLVYR, peptide start residue: 511)”: the log2 fold change worked out at 0.633. Regarding “UniProt Q9Y312 (peptide sequence: MGFFLSLHQR, peptide start residue: 75)”, the log2 fold change is -0.181. Then “CDV3 (peptide sequence: LQLDNQYAVLENQK, peptide start residue: 238) (UniProt Q9UKY7)”, with -0.136.

As for “DIS3 (peptide sequence: IHEEFSEHALLR, peptide start residue: 678) (UniProt Q9Y2L1)”, the log2 fold change was determined as 0.604. For “SHOC2 (peptide sequence: INKIPFGIFSR, peptide start residue: 367) (UniProt Q9UQ13)”, the log2 fold change was determined as 0.494. As to “PACSIN2 (peptide sequence: KAQKPWAK, peptide start residue: 140) (UniProt Q9UNF0)”, the log2 fold change was 0.547. Then “AMDHD2 (peptide sequence: GAHPEAHLR, peptide start residue: 153) (UniProt Q9Y303)”, with 0.277; and “RUVBL2 (peptide sequence: KEVVHTVSLHEIDVINSR, peptide start residue: 236) (UniProt Q9Y230)”, with 0.325; and “PACSIN3 (peptide sequence: ADSAVSQEQLR, peptide start residue: 176) (UniProt Q9UKS6)”, with 0.208. The figure for “SH2B3 (peptide sequence: GWSEFCELHAVAAAR, peptide start residue: 25) (UniProt Q9UQQ2)” is -0.616. Turning to “UniProt Q9UL18 (peptide sequence: LFCADKNER, peptide start residue: 713)”, the log2 fold change worked out at 0.463. As for “EIF3L (peptide sequence: TVSDLIDQK, peptide start residue: 62) (UniProt Q9Y262)”, the log2 fold change was 0.168. As for “PPIE (peptide sequence: VNLAKPMR, peptide start residue: 79) (UniProt Q9UNP9)”, the log2 fold change came out at 0.291. Then “MRPS7 (peptide sequence: WMITECR, peptide start residue: 186) (UniProt Q9Y2R9)”, with -0.237; and “EXOC6B (peptide sequence: EIESTDTACIGPTLR, peptide start residue: 24) (UniProt Q9Y2D4)”, with -0.746. Then “SBNO2 (peptide sequence: AEQGLSIDHVNLR, peptide start residue: 771) (UniProt Q9Y2G9)”, with -0.39; and “BLOC1S6 (peptide sequence: QKEELEREQQR, peptide start residue: 144) (UniProt Q9UL45)”, with 0.399; and “AKAP8L (peptide sequence: GNDTFGPR, peptide start residue: 172) (UniProt Q9ULX6)”, with -0.162. In the case of “ZBTB1 (peptide sequence: KSSTVESEIASEEK, peptide start residue: 303) (UniProt Q9Y2K1)”, the log2 fold change was found to be 0.168. For “SUFU (peptide sequence: DSLESDSSTAIIPHELIR, peptide start residue: 345) (UniProt Q9UMX1)”, the log2 fold change is -0.383. Turning to “REXO2 (peptide sequence: IIENGENEK, peptide start residue: 226) (UniProt Q9Y3B8)”, the log2 fold change was -0.0834.

In the case of “MRPS33 (peptide sequence: LFGEVTRPTNSK, peptide start residue: 18) (UniProt Q9Y291)”, the log2 fold change is -0.319.

Consider “ATAD2B (peptide sequence: GLSVTSEQINPHSTGAR, peptide start residue: 1086) (UniProt Q9ULI0)”, for which the log2 fold change was found to be 0.271. The figure for “RUVBL1 (peptide sequence: AVLLAGPPGTGK, peptide start residue: 65) (UniProt Q9Y265)” is -0.0993; for “CAB39 (peptide sequence: NLKESMAVLEKQDISDK, peptide start residue: 18) (UniProt Q9Y376)” it is 0.678; for “BAG5 (peptide sequence: ARYHTLTK, peptide start residue: 148) (UniProt Q9UL15)” it is -0.99.
